PubChem BioAssay AID1159584, Peter MacCallum Cancer Centre, 2016
The whole screen tested about 18,000 reagents; shown is a random part of them. The record does not give: the amount of reagent, the time to read-out.

Screen: 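Genes that CDH1-null MCF10A cells selectively depend on to survive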 (primary screen)
System: human MCF10A breast epithelial cells, parental and CDH1-null
Reagent: siRNA against human genes
Measurement: 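Cell viability by CellTiter-Glo ATP luminescence, each line scaled to the mean of mock wells across plates, then CDH1-null over parental ratio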
Scale: CDH1-null / parental viability ratio: higher = CDH1-null cells survive relatively better than parental; CDH1-null viability vs mock: higher = more viable CDH1-null cells; parental viability vs mock: higher = more viable parental cells

no.	target	PubChem SID	CDH1-null / parental viability ratio	CDH1-null viability vs mock (fraction of mock)	parental viability vs mock (fraction of mock)
1	NOP58	SID134321872	1.09	0.5	0.46
2	ABCF1	SID152155092	1.16	1.04	0.9
3	TMEM125	SID135623074	1.47	0.94	0.64
4	SREK1IP1	SID152147949	0.83	0.43	0.52
5	OR5B12	SID135624857	0.89	0.62	0.7
6	GBP5	SID134322057	1.56	0.78	0.5
7	TJAP1	SID134319284	1.11	0.6	0.54
8	CYTIP	SID134317639	1.05	1.23	1.17
9	FBXL9P	SID152154424	1.01	1.02	1.01
10	ANKRD37	SID152147735	0.86	0.65	0.76
11	ITPRIPL2	SID152148401	1.01	1	0.99
12	PLEKHF2	SID134322267	1	0.79	0.79
13	RFX4	SID134317797	0.99	0.77	0.78
14	BMP1	SID134311221	1.23	0.97	0.79
15	ZFP41	SID152156606	1.1	1.08	0.98
16	EFHC1	SID152154954	1.31	0.94	0.72
17	ATP5PO	SID134323280	0.9	0.99	1.1
18	PHF23	SID152154651	0.97	0.92	0.95
19	PLGRKT	SID152155612	1.08	0.8	0.74
20	RPL29	SID134317222	1.05	0.78	0.74
21	PPIL6	SID152146948	0.87	0.86	0.99
22	RUSC1	SID152150017	1.06	0.92	0.87
23	NOP53	SID152153825	0.74	0.4	0.54
24	MAX	SID135621889	1.02	0.54	0.53

8 consecutive entries already listed, for reference:
no.	target	PubChem SID	CDH1-null / parental viability ratio	CDH1-null viability vs mock (fraction of mock)	parental viability vs mock (fraction of mock)
11	ITPRIPL2	SID152148401	1.01	1	0.99
12	PLEKHF2	SID134322267	1	0.79	0.79
13	RFX4	SID134317797	0.99	0.77	0.78
14	BMP1	SID134311221	1.23	0.97	0.79
15	ZFP41	SID152156606	1.1	1.08	0.98
16	EFHC1	SID152154954	1.31	0.94	0.72
17	ATP5PO	SID134323280	0.9	0.99	1.1
18	PHF23	SID152154651	0.97	0.92	0.95

Further records follow:
no.	target	PubChem SID	CDH1-null / parental viability ratio	CDH1-null viability vs mock (fraction of mock)	parental viability vs mock (fraction of mock)
25	THEM6	SID152154712	1.02	0.99	0.97
26	ZFP91	SID152147619	0.75	0.68	0.91
27	DIAPH1	SID152153500	0.89	0.8	0.9
28	EXOSC8	SID134317034	1.25	1.14	0.91
29	DTNBP1	SID135623336	1.28	0.82	0.64
30	ZNF253	SID152150175	1.06	1.05	0.99
31	EIF2B1	SID152154101	0.84	0.76	0.91
32	FAM170A	SID152151431	1.22	0.98	0.8
33	ZC3H13	SID152156074	1.01	0.81	0.8
34	CENPP	SID135624832	1.04	0.52	0.5
35	C22orf23	SID135623215	1.06	0.74	0.7
36	TACC1	SID135620948	0.92	0.8	0.87
37	GBP4	SID152148313	0.93	0.81	0.87
38	PSMA1	SID134314756	1.33	0.4	0.3
39	FBP1	SID152151611	1.33	0.96	0.72
40	GLYR1	SID135621551	1.04	0.85	0.82
41	CBR3	SID135621602	0.86	0.77	0.9
42	BPIFB3	SID134313954	0.96	0.77	0.8
43	BMP8A	SID135623566	1.1	0.76	0.69
44	ECM1	SID134316165	0.78	0.56	0.72
45	ANGPTL3	SID134312746	0.97	0.97	1
46	ERO1A	SID134324187	1.09	1.02	0.94
